Measurements published in article PMC6796840, “An H3K27me3 demethylase-HSFA2 regulatory loop orchestrates transgenerational thermomemory in Arabidopsis”.
No constants are given. Whether binding was seen depends on the method and setting. For part of these data: Binding seen in cells or lysates may run through a third protein. Some entries that bind do so weakly or less than the wild type. Tags and fused reporters may be left off the sequences shown.

Assays:
[1] = molecular target: T1, SGS3-… PROTEIN 1 (SGIP1, AT3G47020), GAL4 fusion for yeast two-hybrid (Arabidopsis) (UniProt Q9SD71); assay: two-hybrid; GAL4 activation domain (pDEST-GADT7) and GAL4 DNA binding domain (pDEST-GBKT7) fusions co-transformed into yeast AH109; growth on dropout medium without leucine, histidine and tryptophan with 2 mM 3-aminotriazole
T1 sequence: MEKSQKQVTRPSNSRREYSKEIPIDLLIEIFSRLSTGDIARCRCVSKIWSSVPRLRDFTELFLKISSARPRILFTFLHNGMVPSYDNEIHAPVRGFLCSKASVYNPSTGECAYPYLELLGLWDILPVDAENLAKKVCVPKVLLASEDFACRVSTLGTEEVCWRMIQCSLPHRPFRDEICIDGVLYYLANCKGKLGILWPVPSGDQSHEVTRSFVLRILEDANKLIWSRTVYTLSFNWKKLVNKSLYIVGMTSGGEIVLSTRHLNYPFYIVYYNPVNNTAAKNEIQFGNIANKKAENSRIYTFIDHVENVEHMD

[2] = molecular target: T2, SGS3-… PROTEIN 1 (SGIP1, AT3G47020), firefly luciferase fragment fusion (Arabidopsis) (UniProt Q9SD71); assay: split reporter; split firefly luciferase complementation; fusions to N- or C-terminus of luciferase agroinfiltrated with P19 into N. benthamiana leaves, LUC activity imaged 2 days later
T2 sequence: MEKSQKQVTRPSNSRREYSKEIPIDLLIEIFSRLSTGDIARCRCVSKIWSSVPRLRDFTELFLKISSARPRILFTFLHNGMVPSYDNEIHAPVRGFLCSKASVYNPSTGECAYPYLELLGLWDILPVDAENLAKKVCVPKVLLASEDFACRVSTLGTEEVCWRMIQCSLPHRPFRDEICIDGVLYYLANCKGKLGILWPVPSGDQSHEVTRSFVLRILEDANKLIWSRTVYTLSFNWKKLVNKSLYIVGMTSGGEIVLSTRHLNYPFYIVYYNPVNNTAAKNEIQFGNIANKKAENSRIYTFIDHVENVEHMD

[3] = molecular target: T3, FLAG-SGIP1 (FLAG-AT3G47020) (Arabidopsis) (UniProt Q9SD71); assay: co-IP; N. benthamiana leaf lysate (50 mM Tris-HCl pH 7.5, 150 mM NaCl, 1 mM EDTA, 10% glycerol, 1% Triton X-100); anti-FLAG M2 magnetic beads, 4 °C 2 h; blot with anti-SGS3 and anti-FLAG
T3 sequence: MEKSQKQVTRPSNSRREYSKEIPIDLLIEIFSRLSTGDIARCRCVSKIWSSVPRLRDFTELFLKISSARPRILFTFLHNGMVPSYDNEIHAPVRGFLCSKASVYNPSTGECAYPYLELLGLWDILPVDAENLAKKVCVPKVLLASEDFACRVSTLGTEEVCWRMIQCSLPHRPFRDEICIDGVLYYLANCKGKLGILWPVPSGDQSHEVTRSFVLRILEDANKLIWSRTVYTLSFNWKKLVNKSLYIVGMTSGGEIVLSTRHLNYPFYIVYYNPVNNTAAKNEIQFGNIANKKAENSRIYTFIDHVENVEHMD

B1: SUPPRESSOR OF GENE … 3 (SGS3), GAL4 fusion for yeast two-hybrid (protein, UniProt Q9LDX1 1-625)
chain: MSSRAGPMSKEKNVQGGYRPEVEQLVQGLAGTRLASSQDDGGEWEVISKKNKNKPGNTSGKTWVSQNSNPPRAWGGQQQGRGSNVSGRGNNVSGRGNGNGRGIQANISGRGRALSRKYDNNFVAPPPVSRPPLEGGWNWQARGGSAQHTAVQEFPDVEDDVDNASEEENDSDALDDSDDDLASDDYDSDVSQKSHGSRKQNKWFKKFFGSLDSLSIEQINEPQRQWHCPACQNGPGAIDWYNLHPLLAHARTKGARRVKLHRELAEVLEKDLQMRGASVIPCGEIYGQWKGLGEDEKDYEIVWPPMVIIMNTRLDKDDNDKWLGMGNQELLEYFDKYEALRARHSYGPQGHRGMSVLMFESSATGYLEAERLHRELAEMGLDRIAWGQKRSMFSGGVRQLYGFLATKQDLDIFNQHSQGKTRLKFELKSYQEMVVKELRQISEDNQQLNYFKNKLSKQNKHAKVLEESLEIMSEKLRRTAEDNRIVRQRTKMQHEQNREEMDAHDRFFMDSIKQIHERRDAKEENFEMLQQQERAKVVGQQQQNINPSSNDDCRKRAEEVSSFIEFQEKEMEEFVEEREMLIKDQEKKMEDMKKRHHEEIFDLEKEFDEALEQLMYKHGLHNEDD
- binding [1]: binds

B2: SUPPRESSOR OF GENE … 3 (SGS3), firefly luciferase fragment fusion (protein, UniProt Q9LDX1 1-625)
chain: MSSRAGPMSKEKNVQGGYRPEVEQLVQGLAGTRLASSQDDGGEWEVISKKNKNKPGNTSGKTWVSQNSNPPRAWGGQQQGRGSNVSGRGNNVSGRGNGNGRGIQANISGRGRALSRKYDNNFVAPPPVSRPPLEGGWNWQARGGSAQHTAVQEFPDVEDDVDNASEEENDSDALDDSDDDLASDDYDSDVSQKSHGSRKQNKWFKKFFGSLDSLSIEQINEPQRQWHCPACQNGPGAIDWYNLHPLLAHARTKGARRVKLHRELAEVLEKDLQMRGASVIPCGEIYGQWKGLGEDEKDYEIVWPPMVIIMNTRLDKDDNDKWLGMGNQELLEYFDKYEALRARHSYGPQGHRGMSVLMFESSATGYLEAERLHRELAEMGLDRIAWGQKRSMFSGGVRQLYGFLATKQDLDIFNQHSQGKTRLKFELKSYQEMVVKELRQISEDNQQLNYFKNKLSKQNKHAKVLEESLEIMSEKLRRTAEDNRIVRQRTKMQHEQNREEMDAHDRFFMDSIKQIHERRDAKEENFEMLQQQERAKVVGQQQQNINPSSNDDCRKRAEEVSSFIEFQEKEMEEFVEEREMLIKDQEKKMEDMKKRHHEEIFDLEKEFDEALEQLMYKHGLHNEDD
- binding [2]: binds

B3: SUPPRESSOR OF GENE … 3 (SGS3) in N. benthamiana leaves (co-IP) (protein, UniProt Q9LDX1 1-625)
chain: MSSRAGPMSKEKNVQGGYRPEVEQLVQGLAGTRLASSQDDGGEWEVISKKNKNKPGNTSGKTWVSQNSNPPRAWGGQQQGRGSNVSGRGNNVSGRGNGNGRGIQANISGRGRALSRKYDNNFVAPPPVSRPPLEGGWNWQARGGSAQHTAVQEFPDVEDDVDNASEEENDSDALDDSDDDLASDDYDSDVSQKSHGSRKQNKWFKKFFGSLDSLSIEQINEPQRQWHCPACQNGPGAIDWYNLHPLLAHARTKGARRVKLHRELAEVLEKDLQMRGASVIPCGEIYGQWKGLGEDEKDYEIVWPPMVIIMNTRLDKDDNDKWLGMGNQELLEYFDKYEALRARHSYGPQGHRGMSVLMFESSATGYLEAERLHRELAEMGLDRIAWGQKRSMFSGGVRQLYGFLATKQDLDIFNQHSQGKTRLKFELKSYQEMVVKELRQISEDNQQLNYFKNKLSKQNKHAKVLEESLEIMSEKLRRTAEDNRIVRQRTKMQHEQNREEMDAHDRFFMDSIKQIHERRDAKEENFEMLQQQERAKVVGQQQQNINPSSNDDCRKRAEEVSSFIEFQEKEMEEFVEEREMLIKDQEKKMEDMKKRHHEEIFDLEKEFDEALEQLMYKHGLHNEDD
- binding [3]: binds
